{"sequences": {"note": "Protein sequences, listed by entry. Tags and fused reporters are not part of them.", "UniProt Q15717, whole entry": "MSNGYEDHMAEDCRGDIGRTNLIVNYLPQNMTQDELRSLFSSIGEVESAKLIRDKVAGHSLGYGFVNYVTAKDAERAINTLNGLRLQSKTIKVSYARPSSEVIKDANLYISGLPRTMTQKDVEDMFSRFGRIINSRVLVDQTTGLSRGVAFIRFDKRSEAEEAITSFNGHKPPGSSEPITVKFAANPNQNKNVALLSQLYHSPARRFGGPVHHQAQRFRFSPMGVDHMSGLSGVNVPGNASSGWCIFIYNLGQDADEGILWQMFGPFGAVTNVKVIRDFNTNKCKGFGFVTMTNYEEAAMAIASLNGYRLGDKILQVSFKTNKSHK"}, "source": "the supplement of paper PMC3741180", "about": "“A Novel High Throughput Biochemical Assay to Evaluate the HuR Protein-RNA Complex Formation” (PLoS ONE, 2013)", "note": "The other results are listed elsewhere or left out. This data set is noisy: repeats of one test often differ as much as different tests do.", "data": [{"molecular_target": "HuR (ELAVL1) - TNFalpha ARE RNA complex (UniProt Q15717)", "assay": "AlphaScreen HuR-RNA complex signal Z-score relative to positive (Bi-TNF, DMSO) controls (Z-score (SD units of positive control)); higher = more complex signal", "conditions": "screen stage: primary screen; compound concentration: 25 nM", "values": [{"smiles": "CC(=O)OC(C)C[N+](C)(C)C", "note": "(centres undefined)", "AlphaScreen HuR-RNA complex signal Z-score": 0.387}, {"smiles": "CCCCOc1ccc(CC(=O)NO)cc1", "AlphaScreen HuR-RNA complex signal Z-score": 2.77}, {"smiles": "CCCCC[C@H](CC(=O)NO)C(=O)N[C@H](C(=O)N1CCC[C@H]1CO)C(C)C", "AlphaScreen HuR-RNA complex signal Z-score": 2.75}, {"smiles": "Cc1ccc(O)c([C@H](CCN(C(C)C)C(C)C)c2ccccc2)c1", "AlphaScreen HuR-RNA complex signal Z-score": 0.37}, {"smiles": "Nc1nc(=O)c2c([nH]1)NCC(CNc1ccc(C(=O)N[C@@H](CCC(=O)O)C(=O)O)cc1)N2C=O", "note": "(some centres undefined)", "AlphaScreen HuR-RNA complex signal Z-score": 1.55}, {"smiles": "O=C(O)c1cc(=O)c2c(OCC(O)COc3cccc4oc(C(=O)O)cc(=O)c34)cccc2o1", "AlphaScreen HuR-RNA complex signal Z-score": -5.05}, {"smiles": "O=C(O)/C=C/C=C/c1ccc2c(c1)OCO2", "AlphaScreen HuR-RNA complex signal Z-score": -0.361}, {"smiles": "CCCCCC1C(=O)CCC1CC(=O)O", "note": "(centres undefined)", "AlphaScreen HuR-RNA complex signal Z-score": 0.963}, {"smiles": "CC(C)CCC[C@@H](C)[C@H]1CC[C@H]2[C@@H]3CC=C4C[C@@H](O)CC[C@]4(C)[C@H]3CC[C@]12C", "AlphaScreen HuR-RNA complex signal Z-score": -0.228}, {"smiles": "Nc1ccn([C@@H]2O[C@H](CO)[C@@H](O)[C@H]2O)c(=O)n1", "AlphaScreen HuR-RNA complex signal Z-score": 0.765}, {"smiles": "CN(C)CCC(c1ccccc1)c1ccccn1", "note": "(centres undefined)", "AlphaScreen HuR-RNA complex signal Z-score": 2.09}, {"smiles": "C=CC(C1=CC(=O)C(OC)=CC1=O)c1ccc(O)cc1", "note": "(centres undefined)", "AlphaScreen HuR-RNA complex signal Z-score": -4.91}, {"smiles": "O=P(O)(O)C(O)(Cc1cccnc1)P(=O)(O)O", "AlphaScreen HuR-RNA complex signal Z-score": 0.582}, {"smiles": "O=C(O)c1cc(O)c(O)c(O)c1", "AlphaScreen HuR-RNA complex signal Z-score": 0.212}, {"smiles": "CCN(CC)C(=O)N1CCN(C)CC1", "AlphaScreen HuR-RNA complex signal Z-score": -2.9}, {"smiles": "CC[C@]1(O)C[C@@H]2CN(CCc3c([nH]c4ccccc34)[C@@](C(=O)OC)(c3cc4c(cc3OC)N(C)[C@H]3[C@@](O)(C(=O)OC)[C@H](OC(C)=O)[C@]5(CC)C=CCN6CC[C@]43[C@@H]65)C2)C1", "AlphaScreen HuR-RNA complex signal Z-score": -1.46}, {"smiles": "C[C@H]1CC[C@@H](C(C)(C)O)CC2=C1CC[C@@H]2C", "AlphaScreen HuR-RNA complex signal Z-score": 1.08}, {"smiles": "CCN(CCCc1ccccc1)CCCc1ccccc1", "AlphaScreen HuR-RNA complex signal Z-score": 0.315}, {"smiles": "CCCCC(CC)COC(=O)c1ccccc1O", "note": "(centres undefined)", "AlphaScreen HuR-RNA complex signal Z-score": 0.584}, {"smiles": "CC(=O)[C@H]1CC[C@H]2[C@@H]3CC=C4C[C@@H](OC(=O)CCC(=O)O)CC[C@]4(C)[C@H]3CC[C@]12C", "AlphaScreen HuR-RNA complex signal Z-score": -0.429}, {"smiles": "Clc1ccc(COC(Cn2ccnc2)c2ccc(Cl)cc2Cl)cc1", "note": "(centres undefined)", "AlphaScreen HuR-RNA complex signal Z-score": 1.34}, {"smiles": "Clc1ccccc1C(c1ccccc1)(c1ccccc1)n1ccnc1", "AlphaScreen HuR-RNA complex signal Z-score": -6.14}, {"smiles": "NC(=O)NO", "AlphaScreen HuR-RNA complex signal Z-score": -1.19}, {"smiles": "CO/N=C1\\CN(c2nc3c(cc2F)c(=O)c(C(=O)O)cn3C2CC2)CC1CN", "note": "(centres undefined)", "AlphaScreen HuR-RNA complex signal Z-score": 1.78}, {"smiles": "CC(C)=CCC/C(C)=C/COc1ccc2ccc(=O)oc2c1", "AlphaScreen HuR-RNA complex signal Z-score": 1.53}, {"smiles": "COc1c(OC)c2occc2c2oc(=O)ccc12", "AlphaScreen HuR-RNA complex signal Z-score": 0.639}, {"smiles": "CN1CCC[C@H]1c1cccnc1", "AlphaScreen HuR-RNA complex signal Z-score": 5.66}, {"smiles": "CCCC(C(=O)OCCN(CC)CC)(c1ccccc1)c1ccccc1", "AlphaScreen HuR-RNA complex signal Z-score": 0.765}, {"smiles": "C[C@@H]1CC2C3C[C@H](F)C4=CC(=O)C=C[C@]4(C)[C@@]3(F)[C@@H](O)C[C@]2(C)[C@@]1(O)C(=O)COC(=O)C(C)(C)C", "note": "(some centres undefined)", "AlphaScreen HuR-RNA complex signal Z-score": -2.68}, {"smiles": "Cn1c(=O)c2c(ncn2CC(O)CO)n(C)c1=O", "note": "(centres undefined)", "AlphaScreen HuR-RNA complex signal Z-score": -2.5}, {"smiles": "NC(=O)c1cccnc1", "AlphaScreen HuR-RNA complex signal Z-score": 0.477}, {"smiles": "CNC1(C)C2CCC(C2)C1(C)C", "note": "(centres undefined)", "AlphaScreen HuR-RNA complex signal Z-score": 0.767}, {"smiles": "NC(=O)C1(N2CCCCC2)CCN(CCCC(=O)c2ccc(F)cc2)CC1", "AlphaScreen HuR-RNA complex signal Z-score": -2.96}, {"smiles": "CCCCCCCCCCCCCCCC[N+](C)(C)C", "AlphaScreen HuR-RNA complex signal Z-score": 1.68}, {"smiles": "CC1=C(C(=O)O)N2C(=O)[C@@H](NC(=O)[C@H](N)c3ccc(O)cc3)[C@H]2SC1", "AlphaScreen HuR-RNA complex signal Z-score": -1.9}, {"smiles": "OC[C@H]1O[C@@H](O[C@H]2[C@H](O)[C@@H](O)[C@@H](O)O[C@@H]2CO)[C@H](O)[C@@H](O)[C@@H]1O", "AlphaScreen HuR-RNA complex signal Z-score": 0.0804}, {"smiles": "CC1=CCCC(C)=CCC(C)(C)C=CC1", "note": "[HUMULENE (alpha)]", "AlphaScreen HuR-RNA complex signal Z-score": 2.55}, {"smiles": "COc1cc(C)c2c(=O)cc(-c3ccccc3)oc2c1", "AlphaScreen HuR-RNA complex signal Z-score": 2.44}, {"smiles": "CCOc1nc2cccc(C(=O)OC(C)OC(=O)OC3CCCCC3)c2n1Cc1ccc(-c2ccccc2-c2nn[nH]n2)cc1", "note": "(centres undefined)", "AlphaScreen HuR-RNA complex signal Z-score": -7.87}, {"smiles": "Nc1ccc(S(N)(=O)=O)cc1", "AlphaScreen HuR-RNA complex signal Z-score": -0.558}, {"smiles": "Nc1ncnc2c1ncn2[C@H]1C[C@H](O)[C@@H](CO)O1", "AlphaScreen HuR-RNA complex signal Z-score": 0.571}, {"smiles": "O=C(O)/C=C/c1ccccc1", "AlphaScreen HuR-RNA complex signal Z-score": 1.17}, {"smiles": "COc1ccc([C@H]2Oc3cc(OC)cc(OC)c3C[C@H]2O)cc1", "AlphaScreen HuR-RNA complex signal Z-score": 2.77}, {"smiles": "CC[C@]12CCCN3CCc4c(n(c5ccccc45)[C@@](O)(C(=O)OC)C1)[C@@H]32", "AlphaScreen HuR-RNA complex signal Z-score": 0.89}, {"smiles": "COc1ccc2c(c1)OCC(Cc1ccc(OC)c(OC)c1)C2=O", "note": "(centres undefined)", "AlphaScreen HuR-RNA complex signal Z-score": 2.39}, {"smiles": "Cc1cc(O)cc(=O)o1", "AlphaScreen HuR-RNA complex signal Z-score": 1.14}, {"smiles": "S=P(N1CC1)(N1CC1)N1CC1", "AlphaScreen HuR-RNA complex signal Z-score": 0.241}, {"smiles": "CC(C)[C@@H]1CC[C@@H](C)C[C@H]1OC(=O)c1ccccc1", "AlphaScreen HuR-RNA complex signal Z-score": 2.89}, {"smiles": "CC(=O)O[C@H]1CC[C@]2(C)[C@H]3CC=C4[C@@H]5CC(C)(C)CC[C@]5(C(=O)O)CC[C@@]4(C)[C@]3(C)CC[C@H]2C1(C)C", "AlphaScreen HuR-RNA complex signal Z-score": 1.75}]}]}
